The supplement of paper PMC10077471
The full ranking holds about 1,900 compounds; the median of “excess over highest single agent (ExcessHSA) synergy score, 6x6 matrix” is about -83, and the lowest 2% start at about -370. Some of the results follow.

tested on: NCI-H446; experiment: excess over highest single agent (ExcessHSA) synergy score, 6x6 matrix; higher = less synergy (more negative = stronger synergy); conditions: 72 h; CellTiter-Glo viability

Compound	excess over highest single agent
C[C@H](NC(=O)[C@@H](O)c1cc(F)cc(F)c1)C(=O)N[C@@H]1C(=O)N(C)c2ccccc2-c2ccccc21 + Cc1sc2c(c1C)C(c1ccc(Cl)cc1)=N[C@@H](CC(=O)OC(C)(C)C)c1nnc(C)n1-2 [NCGC00250412-19]	-3.99
CCS(=O)(=O)Nc1ccc2[nH]c(O)c(C(=Nc3ccc(CN4CCCCC4)cc3)c3ccccc3)c2c1 + Cc1sc2c(c1C)C(c1ccc(Cl)cc1)=N[C@@H](CC(=O)OC(C)(C)C)c1nnc(C)n1-2 [NCGC00250412-19]	-393
N=C1N[C@H]2[C@H](CS[C@H]2CCCCC(=O)O)N1 + Cc1sc2c(c1C)C(c1ccc(Cl)cc1)=N[C@@H](CC(=O)OC(C)(C)C)c1nnc(C)n1-2 [NCGC00250412-19]	-1.1
CCC(=O)O[C@H]1CC[C@H]2[C@@H]3CCC4=CC(=O)CC[C@]4(C)[C@H]3CC[C@]12C + Cc1sc2c(c1C)C(c1ccc(Cl)cc1)=N[C@@H](CC(=O)OC(C)(C)C)c1nnc(C)n1-2 [NCGC00250412-19]	-35.9
N#Cc1c(C2CCNCC2)cc(-c2c(O)cccc2OCC2CC2)nc1N + Cc1sc2c(c1C)C(c1ccc(Cl)cc1)=N[C@@H](CC(=O)OC(C)(C)C)c1nnc(C)n1-2 [NCGC00250412-19]	31
O=c1cc(-c2ccc(O)c(O)c2)oc2cc(O)cc(O)c12 + Cc1sc2c(c1C)C(c1ccc(Cl)cc1)=N[C@@H](CC(=O)OC(C)(C)C)c1nnc(C)n1-2 [NCGC00250412-19]	-158
O=C(Cc1ccc(-c2ccc(OCCN3CCOCC3)cc2)cn1)NCc1ccccc1 + Cc1sc2c(c1C)C(c1ccc(Cl)cc1)=N[C@@H](CC(=O)OC(C)(C)C)c1nnc(C)n1-2 [NCGC00250412-19]	-148
NCCCCNCCCN + Cc1sc2c(c1C)C(c1ccc(Cl)cc1)=N[C@@H](CC(=O)OC(C)(C)C)c1nnc(C)n1-2 [NCGC00250412-19]	60
Nc1ncn([C@H]2C[C@H](O)[C@@H](CO)O2)c(=O)n1 + Cc1sc2c(c1C)C(c1ccc(Cl)cc1)=N[C@@H](CC(=O)OC(C)(C)C)c1nnc(C)n1-2 [NCGC00250412-19]	-256
COC(=O)Nc1ccc(-c2nc(N3CCOCC3)c3cnn(C4CCN(Cc5cccnc5)CC4)c3n2)cc1 + Cc1sc2c(c1C)C(c1ccc(Cl)cc1)=N[C@@H](CC(=O)OC(C)(C)C)c1nnc(C)n1-2 [NCGC00250412-19]	-214
CCn1c(-c2nonc2N)nc2cncc(CNC3CCNCC3)c21 + Cc1sc2c(c1C)C(c1ccc(Cl)cc1)=N[C@@H](CC(=O)OC(C)(C)C)c1nnc(C)n1-2 [NCGC00250412-19]	51.1
CCN[C@H]1C[C@H](C)S(=O)(=O)c2sc(S(N)(=O)=O)cc21 + Cc1sc2c(c1C)C(c1ccc(Cl)cc1)=N[C@@H](CC(=O)OC(C)(C)C)c1nnc(C)n1-2 [NCGC00250412-19]	-134
O=C1Cc2cc(CCN3CCN(c4nsc5ccccc45)CC3)c(Cl)cc2N1 + Cc1sc2c(c1C)C(c1ccc(Cl)cc1)=N[C@@H](CC(=O)OC(C)(C)C)c1nnc(C)n1-2 [NCGC00250412-19]	-87.1
Clc1ccc(COC(Cn2ccnc2)c2ccc(Cl)cc2Cl)c(Cl)c1 (configuration not stated) + Cc1sc2c(c1C)C(c1ccc(Cl)cc1)=N[C@@H](CC(=O)OC(C)(C)C)c1nnc(C)n1-2 [NCGC00250412-19]	-184
CO[C@H]1O[C@@H]2O[C@@]3(C)CC[C@H]4[C@H](C)CC[C@@H]([C@H]1C)[C@@]24OO3 + Cc1sc2c(c1C)C(c1ccc(Cl)cc1)=N[C@@H](CC(=O)OC(C)(C)C)c1nnc(C)n1-2 [NCGC00250412-19]	-261
NC12CC3CC(CC(C3)C1)C2 + Cc1sc2c(c1C)C(c1ccc(Cl)cc1)=N[C@@H](CC(=O)OC(C)(C)C)c1nnc(C)n1-2 [NCGC00250412-19]	-91.8
CO[C@@H](C(=O)N1Cc2[nH]nc(NC(=O)c3ccc(N4CCN(C)CC4)cc3)c2C1)c1ccccc1 + Cc1sc2c(c1C)C(c1ccc(Cl)cc1)=N[C@@H](CC(=O)OC(C)(C)C)c1nnc(C)n1-2 [NCGC00250412-19]	-288
CN1CCN(C2=Nc3cc(Cl)ccc3Nc3ccccc32)CC1 + Cc1sc2c(c1C)C(c1ccc(Cl)cc1)=N[C@@H](CC(=O)OC(C)(C)C)c1nnc(C)n1-2 [NCGC00250412-19]	-31.6
Cc1sc2c(c1C)C(c1ccc(Cl)cc1)=N[C@@H](CC(=O)OC(C)(C)C)c1nnc(C)n1-2 + Cc1sc2c(c1C)C(c1ccc(Cl)cc1)=N[C@@H](CC(=O)OC(C)(C)C)c1nnc(C)n1-2 [NCGC00250412-19]	-86.2

Shown with each value named: entries from further up
O=C1Cc2cc(CCN3CCN(c4nsc5ccccc45)CC3)c(Cl)cc2N1 + Cc1sc2c(c1C)C(c1ccc(Cl)cc1)=N[C@@H](CC(=O)OC(C)(C)C)c1nnc(C)n1-2 [NCGC00250412-19]
  excess over highest single agent: -87.1
Clc1ccc(COC(Cn2ccnc2)c2ccc(Cl)cc2Cl)c(Cl)c1 (configuration not stated) + Cc1sc2c(c1C)C(c1ccc(Cl)cc1)=N[C@@H](CC(=O)OC(C)(C)C)c1nnc(C)n1-2 [NCGC00250412-19]
  excess over highest single agent: -184
CO[C@H]1O[C@@H]2O[C@@]3(C)CC[C@H]4[C@H](C)CC[C@@H]([C@H]1C)[C@@]24OO3 + Cc1sc2c(c1C)C(c1ccc(Cl)cc1)=N[C@@H](CC(=O)OC(C)(C)C)c1nnc(C)n1-2 [NCGC00250412-19]
  excess over highest single agent: -261

Next part.

Compound	excess over highest single agent
CCn1nnc2c(N3CCOCC3)nc(-c3ccc(NC(=O)Nc4ccc(C(=O)N5CCN(C)CC5)cc4)cc3)nc21 + Cc1sc2c(c1C)C(c1ccc(Cl)cc1)=N[C@@H](CC(=O)OC(C)(C)C)c1nnc(C)n1-2 [NCGC00250412-19]	-198
NS(=O)(=O)c1cc(C(=O)O)c(NCc2ccco2)cc1Cl + Cc1sc2c(c1C)C(c1ccc(Cl)cc1)=N[C@@H](CC(=O)OC(C)(C)C)c1nnc(C)n1-2 [NCGC00250412-19]	-28.8
CCCn1c(=O)c2[nH]c(-c3cnn(Cc4cccc(C(F)(F)F)c4)c3)nc2n(CC)c1=O + Cc1sc2c(c1C)C(c1ccc(Cl)cc1)=N[C@@H](CC(=O)OC(C)(C)C)c1nnc(C)n1-2 [NCGC00250412-19]	-49.1
CC(=O)N1CCN(c2ccc(OCc3nn(C)c(C)c3-c3cccc4c(CCCOc5cc(C)c(Cl)c(C)c5)c(C(=O)O)n(Cc5cccnc5)c34)cc2)CC1 + Cc1sc2c(c1C)C(c1ccc(Cl)cc1)=N[C@@H](CC(=O)OC(C)(C)C)c1nnc(C)n1-2 [NCGC00250412-19]	158
CN[C@H]1CN(c2ccc3c(=O)c(C(=O)O)cn(-c4nccs4)c3n2)C[C@@H]1OC + Cc1sc2c(c1C)C(c1ccc(Cl)cc1)=N[C@@H](CC(=O)OC(C)(C)C)c1nnc(C)n1-2 [NCGC00250412-19]	-272
COc1cc(C(=O)NS(=O)(=O)c2ccccc2C)ccc1Cc1cn(C)c2ccc(NC(=O)OC3CCCC3)cc12 + Cc1sc2c(c1C)C(c1ccc(Cl)cc1)=N[C@@H](CC(=O)OC(C)(C)C)c1nnc(C)n1-2 [NCGC00250412-19]	-179
Cc1cc(C2CCCCC2)n(O)c(=O)c1 + Cc1sc2c(c1C)C(c1ccc(Cl)cc1)=N[C@@H](CC(=O)OC(C)(C)C)c1nnc(C)n1-2 [NCGC00250412-19]	-163
CCc1cncnc1N1CCN(Cc2nc3ccc(C(F)(F)F)cc3[nH]2)CC1 + Cc1sc2c(c1C)C(c1ccc(Cl)cc1)=N[C@@H](CC(=O)OC(C)(C)C)c1nnc(C)n1-2 [NCGC00250412-19]	36.6
O=C(O)C(=O)O.[NH-]C1CCCCC1[NH-].[Pt+2] (configuration not stated) + Cc1sc2c(c1C)C(c1ccc(Cl)cc1)=N[C@@H](CC(=O)OC(C)(C)C)c1nnc(C)n1-2 [NCGC00250412-19]	-135
O=C(CCCN1CCN(c2ccc(F)cc2)CC1)NC1c2ccccc2CSc2ccccc21 (configuration not stated) + Cc1sc2c(c1C)C(c1ccc(Cl)cc1)=N[C@@H](CC(=O)OC(C)(C)C)c1nnc(C)n1-2 [NCGC00250412-19]	-52.7
NCC(=O)Nc1ccc(-n2nc(C(F)(F)F)cc2-c2ccc3c(ccc4ccccc43)c2)cc1 + Cc1sc2c(c1C)C(c1ccc(Cl)cc1)=N[C@@H](CC(=O)OC(C)(C)C)c1nnc(C)n1-2 [NCGC00250412-19]	13.2
COc1ccc(-c2nc3cc(C4=NNC(=O)CC4C)ccc3[nH]2)cc1 (configuration not stated) + Cc1sc2c(c1C)C(c1ccc(Cl)cc1)=N[C@@H](CC(=O)OC(C)(C)C)c1nnc(C)n1-2 [NCGC00250412-19]	-77.7
COc1ccc(Cc2ccc(NC(N)=O)cc2)cc1-c1cccc(Cl)c1 + Cc1sc2c(c1C)C(c1ccc(Cl)cc1)=N[C@@H](CC(=O)OC(C)(C)C)c1nnc(C)n1-2 [NCGC00250412-19]	-139
CN[C@H](CC(C)C)C(=O)N[C@H]1C(=O)N[C@@H](CC(N)=O)C(=O)N[C@H]2C(=O)N[C@H]3C(=O)N[C@H](C(=O)N[C@H](C(=O)O)c4cc(O)cc(O)c4-c4cc3ccc4O)[C@H](O)c3ccc(c(Cl)c3)Oc3cc2cc(c3O[C@@H]2O[C@H](CO)[C@@H](O)[C@H](O)[C@H]2O[C@H]2C[C@](C)(N)[C@H](O)[C@H](C)O2)Oc2ccc(cc2Cl)[C@H]1O + Cc1sc2c(c1C)C(c1ccc(Cl)cc1)=N[C@@H](CC(=O)OC(C)(C)C)c1nnc(C)n1-2 [NCGC00250412-19]	-248
O=c1c(O)c(-c2ccc(O)c(O)c2)oc2cc(O)ccc12 + Cc1sc2c(c1C)C(c1ccc(Cl)cc1)=N[C@@H](CC(=O)OC(C)(C)C)c1nnc(C)n1-2 [NCGC00250412-19]	-211
CNS(=O)(=O)Cc1ccc2[nH]cc(CCN(C)C)c2c1 + Cc1sc2c(c1C)C(c1ccc(Cl)cc1)=N[C@@H](CC(=O)OC(C)(C)C)c1nnc(C)n1-2 [NCGC00250412-19]	-83.9
NS(=O)(=O)c1cc2c(cc1Cl)N=CNS2(=O)=O + Cc1sc2c(c1C)C(c1ccc(Cl)cc1)=N[C@@H](CC(=O)OC(C)(C)C)c1nnc(C)n1-2 [NCGC00250412-19]	-55.8
CCOC(=O)[C@H](CCc1ccccc1)N[C@@H](C)C(=O)N1[C@H](C(=O)O)C[C@@H]2CCC[C@@H]21 + Cc1sc2c(c1C)C(c1ccc(Cl)cc1)=N[C@@H](CC(=O)OC(C)(C)C)c1nnc(C)n1-2 [NCGC00250412-19]	-6.15
